Results on one compound are retold here after PubChem BioAssay AID624171 (National Center for Advancing Translational Sciences (NCATS), 2012).

The structures appear in SMILES notation. This is a selection; strong and weak results do not stand in their true shares. Active and inactive are the calls of the source. The call rests on the fitted dose curve; in most records, active means well fitted activation curve with a large enough effect; inconclusive means small, poorly fitted or top-dose-only effect; inactive means flat fitted curve, though single readings scatter.
Potency means the concentration at half of the fitted maximal effect.

This experiment in a line: qHTS of Nrf2 Activators. Further: nearly all actives have a fitted effect of over 65% in size. The note with it: AREc32 ARE-luciferase reporter (MCF7-derived line), luminescence, 24 h. From the text: Many diseases have some form of oxidative stress injury and ties to inflammation, causing a host of problems for the patient. The antioxidant response element (ARE) plays an important role in alleviating the harmful effects of oxidative stress. The antioxidant response element (ARE) is a transcriptional regulatory element involved in the activation of genes coding for a number of antioxidant proteins and detoxifying enzymes. These enzymes work in concert to protect tissues from oxidative insults and chemical toxicities in human hepatocytes and immune cells. The protective effects of ARE activation are primarily triggered through Nrf2 (NF-E2-related factor) binding to and activating AREs. It is known that Nrf2 controls the production of over 250 antioxidant and detoxification proteins (Hu et al., 2006), thereby protecting tissues by increasing cellular antioxidant content and suppressing inflammatory signaling pathways. The transcription factor Nrf2 is a central link between oxidative chemicals, such as phenolic antioxidants and electrophilic compounds, and the activation of ARE. […]
5 uL of 1000 cells/well of AREc32_Fluc cells are seeded into 1536-well plate in OPTI-MEM medium with 5% FBS. […] After the addition of 2.5 uL of Steady-Glo. the plates are kept at RT for 30 min, before they are read on the ViewLux.
In the case of `O=c1ccc2ccc(OCc3ccccc3)cc2o1`, the Potency was active: 12.6 µM.
